Test results: PMC7617989
These are yes or no findings as the source states them, for the method shown. Binding seen in cells or lysates may run through a third protein. Some results given as binding are weak or reduced against the parent protein; the word gives no strength.

Protein sequences, listed by entry. Tags and fused reporters are not part of them. Residues count along the entry.
UniProt P56817, residues 46-501: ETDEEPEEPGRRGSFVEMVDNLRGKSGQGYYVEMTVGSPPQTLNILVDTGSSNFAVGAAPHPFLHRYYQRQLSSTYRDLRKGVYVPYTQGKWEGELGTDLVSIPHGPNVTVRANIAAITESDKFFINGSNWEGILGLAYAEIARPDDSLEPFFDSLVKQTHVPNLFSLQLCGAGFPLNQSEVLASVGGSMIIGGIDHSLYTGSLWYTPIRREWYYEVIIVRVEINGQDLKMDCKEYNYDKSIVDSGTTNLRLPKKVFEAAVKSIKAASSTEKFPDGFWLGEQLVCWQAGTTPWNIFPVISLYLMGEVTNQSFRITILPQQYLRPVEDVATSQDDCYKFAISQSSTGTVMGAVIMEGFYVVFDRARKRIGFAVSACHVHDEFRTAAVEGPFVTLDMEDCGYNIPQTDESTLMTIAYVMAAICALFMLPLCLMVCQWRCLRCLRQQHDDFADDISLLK

Molecular target: EGFR, endogenous in MH1002 cells (human (endogenous in MH1002)) (UniProt P00533)
Experiment: proximity ligation; MH1002 cells with endogenous BACE1 and EGFR, stained for BACE1 and EGFR

BACE1, endogenous in MH1002 cells (from UniProt P56817 46-501) (enzyme)
binding: binds
